The target in assay [1] is T1, CPK5, cLuc fusion for the split-luciferase assay (Arabidopsis thaliana) (UniProt Q38871).
T1 sequence: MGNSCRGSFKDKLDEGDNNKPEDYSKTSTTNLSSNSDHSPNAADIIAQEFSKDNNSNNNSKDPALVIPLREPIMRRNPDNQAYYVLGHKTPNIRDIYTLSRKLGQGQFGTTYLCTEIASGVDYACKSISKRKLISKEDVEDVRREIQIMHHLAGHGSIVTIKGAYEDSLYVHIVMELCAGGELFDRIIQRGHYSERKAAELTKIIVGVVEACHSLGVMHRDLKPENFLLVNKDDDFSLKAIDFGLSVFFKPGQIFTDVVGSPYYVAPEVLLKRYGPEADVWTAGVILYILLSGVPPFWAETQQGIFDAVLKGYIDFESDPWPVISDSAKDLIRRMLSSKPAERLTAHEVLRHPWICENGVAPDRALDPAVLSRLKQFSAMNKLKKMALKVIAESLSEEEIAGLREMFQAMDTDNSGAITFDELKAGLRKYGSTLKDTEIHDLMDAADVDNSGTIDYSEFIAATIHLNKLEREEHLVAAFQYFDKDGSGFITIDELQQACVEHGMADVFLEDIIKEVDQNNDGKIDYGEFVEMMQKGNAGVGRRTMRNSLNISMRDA
Kind of assay: split reporter.

The target of assay [2] is T2, calcium-dependent protein kinase 5 (CPK5), full-length, yeast two-hybrid fusion (Arabidopsis thaliana) (UniProt Q38871).
T2 sequence: T1 sequence
Briefly: two-hybrid.

These are yes or no findings as the source states them, for the method shown. For part of these data: Binding seen in cells or lysates may run through a third protein. Where a sequence is shown, tags or fusion partners need not be part of it.

The values below come from paper doi:10.1101/2023.07.20.549975.

As for “AP2C1 (clade B PP2C), nLuc fusion for the split-luciferase assay (Arabidopsis thaliana)”, the binding entry in assay [1] is given as “no binding”.

On to “PP2C6-6 (clade E PP2C), nLuc fusion for the split-luciferase assay (Arabidopsis thaliana)”, for which the binding result in assay [1] is “no binding”.

With “HAB1, yeast two-hybrid fusion (Arabidopsis thaliana)”, the binding entry in assay [2] is listed as “no binding”.
